Hit rate of the full screen: of about 53,000 sequences, about 3,700 (7%) were called active.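 Rule for the calls: active = gene knockdowns whose robust z-score for IL-1 alpha signal is at least 2 or at most -2, so actives lie on both sides; inactive = the rest.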 The list shows a part of the results.
Assay: Components of the Cytosolic LPS Sensing Pathway: Gene Identification via Genome-wide siRNA Screen;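 note: robust z of the log signal after scaling to non-targeting control siRNA wells of the plate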
Details: RAW264.7 macrophages, IL-1a HTRF, actives lie on both sides, screened at 100 nM (by protocol), cells primed 5 h with Pam3CSK4 first
Procedure, shortened: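 IL-1a HTRF of supernatants after 24 hour LipidA transfection of Pam3CSK4-primed (5 hours) RAW264.7 cells, 48h post-siRNA transfection (100 nM). Scores: percent of plate negative-control median, then log-based robust z-score.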
In the case of GUGAUGACUGAGCUUCUAATT against Olfr1446, the z-score is reported as inactive: -1.9. In the case of CCAAUAAGUGACCUUUUUUTT against Tmprss11b, the z-score is reported as inactive: -0.989. With GGAUUUUGACAACAUCUCCTT against Pak7 the z-score was inactive: 0.406. In the case of GGGAGAUGAAGAACUAUGUTT against Hmgb2, the z-score is reported as inactive: -0.459. In the case of GGAGCAGCAGAAGGUUCUUTT against Olfr434, the z-score is reported as inactive: 1.27. In the case of GGGUCCUUUCAAAUAUAUATT against Necap1, the z-score is reported as inactive: -1.03. With CGUACUCUAUGAGGUGCCATT against Dennd5a the z-score was inactive: 0.773. In the case of GGAACUCUUGGAAGAAUAUTT against Katnal1, the z-score is reported as inactive: -0.018. With GCUUGGGUAAUAGAAAUCATT against Btnl1 the z-score was inactive: 0.6. For CCUAUGGAGAGUAUGACUATT against Khdrbs3, the z-score was inactive: -0.638. For CCAAUGAAACCUGCUUGGGTT against Cd200r2, the z-score was inactive: 1.11. For GAUAUACAGCAUACUCUCATT against Olfr1087, the z-score was inactive: 1.04. In the case of “GGUCAGGAAAUAUUCUUAATT against A630001G21Rik”, the z-score is reported as inactive: 0.346. For CGAGUCUUGUGGAGUUUCGTT against Spint2, the z-score was inactive: 0.78. With GGCCUGAACCUCUUUCAAGTT against Mep1a the z-score was inactive: 0.968. In the case of GGGACAAUUCAGGAUGGAGTT against Ift88, the z-score is reported as inactive: 0.0559. For GGAGACCUAAAGAUGAUCATT against Mmab, the z-score was inactive: 0.385. With GGCGCAUAGGAAUGUGCUUTT against Mynn the z-score was inactive: 0.966. With GCAUUGUGUGGUUUUGCCATT against Myog the z-score was inactive: 0.614. In the case of CGACAAGCUGUACCUCUACTT against Rfx5, the z-score is reported as active: 3.41. In the case of GGUCUGAAGAAGAUUCUGGTT against Unc45a, the z-score is reported as inactive: 0.33. For GGUCGUUUCUAUGAUUGGCTT against Olfr589, the z-score was inactive: 0.568. For GGUUGAAUCAAGAGGAAAATT against Tmem183a, the z-score was inactive: 1.27. In the case of GUUGUGUUCUGAUUGUUUUTT against Olfr1020, the z-score is reported as active: 2.03. With GCGACUGUGGUGGUUACAUTT against Bcas2 the z-score was inactive: 0.444. In the case of CCCUGGUACAUUUCACGUCTT against Defb50, the z-score is reported as inactive: 0.0211. For GGCCAUACCUCCCUUUGAATT against Polr1b, the z-score was inactive: -1.02. In the case of GGAUAUGUCGGAAAAAGCCTT against Cfh, the z-score is reported as inactive: 0.271. With GGCCUUCCUGCUCAAGUUUTT against Ano1 the z-score was inactive: 1.04. With GCGUUAUAGCCUCAGUGUGTT against Olfr605 the z-score was inactive: 1.04. With GGCCUAUGCACAACUGAAGTT against Slc6a19 the z-score was inactive: 0.828. In the case of GGGCAUUCUACUUCAGAGATT against Orc2, the z-score is reported as inactive: -1.47. In the case of GGCCAGCGAGAGAGAGAAATT against Msgn1, the z-score is reported as inactive: 0.371. For GGUGGUUGAACAUAAGACUTT against Zfp688, the z-score was inactive: 1.27. With GGGUAGUAACAAUUAGAUCTT against Tppp the z-score was inactive: 0.0656. With GCACUUCGAAUGUACUGUCTT against Gnrh1 the z-score was inactive: -0.656. For GGCCUGUAGUCAAUGGAAATT against Magi2, the z-score was inactive: -0.382. In the case of CGGAAUUUUGCCUUCAUGATT against Iars2, the z-score is reported as inactive: -1.64. With GGAUUAAACAAGAACAAGATT against Cnksr2 the z-score was inactive: 0.496. With GGUUCUCUAUUUUCAGCACTT against Inmt the z-score was inactive: -0.848. In the case of GGGCAAACAUUAUAAAUUGTT against Prl8a9, the z-score is reported as inactive: 1.46. In the case of GGUACUUGUACUAAUCGCUTT against Lpcat2, the z-score is reported as inactive: 0.683. For GGAAUGUAUGGUGAGACUUTT against Ap4e1, the z-score was inactive: 1.25. With GGACUGACCCUGUAAAGAUTT against Zfp296 the z-score was inactive: -0.574. For GGCUUCAAGCUAUUCAUGATT against Dgkb, the z-score was inactive: 0.126. In the case of GGGUUUAGCUCACUGAGUATT against Tm4sf5, the z-score is reported as inactive: -1.53. For CCGGCUUCUGGUACUAUACTT against Plekhn1, the z-score was inactive: 0.351. With GGGAUCUCAUUGCACAUUUTT against Nudt18 the z-score was inactive: -0.859. With GGCAAACAGACUGAGUUUATT against Tsc2 the z-score was inactive: 1.3. In the case of CUAUCAAGGGCAGUCAACUTT against Olfr1208, the z-score is reported as active: -2.38. In the case of GGCGAGAAACCUUUCAGAUTT against Zic4, the z-score is reported as active: 4.72. In the case of GGGCGAAUUUAACACAGUGTT against Txnrd1, the z-score is reported as inactive: -1.8. For GGGAAAAUUAGAAGUCAGGTT against Dscam, the z-score was inactive: -0.562. In the case of CCAAUGUGUUUGCCAAUAGTT against Psph, the z-score is reported as inactive: 1.62. With GGUUGAAGAAUAGAAUGUCTT against Cda the z-score was inactive: -1.66. In the case of GCUGGUUUUUGUCAUAAACTT against Olfr1316, the z-score is reported as inactive: -0.825. For GGAUGCUAAUUUAUGUGCUTT against Senp7, the z-score was inactive: 1.33. In the case of CGAUGGCUCUACCAAAGGCTT against Urod, the z-score is reported as inactive: 0.358. With CCUGAUAUACAAUCUAACCTT against Fv4 the z-score was inactive: 1.89. For GGUAUCGUAUAUGGAGAUCTT against Kif13a, the z-score was active: 2.12. With CGGCAACCACAAUAUCAAUTT against Mill1 the z-score was inactive: 1.15. With GGAUCGAAUCAGGAAUGAATT against Nphs1 the z-score was inactive: 1.39. For GGAAGAAAGAAGAAGAGACTT against Lig1, the z-score was inactive: -0.533. For GCGUCUCAUAGAGUUGGUGTT against Mblac2, the z-score was inactive: 0.0617. With GGGCCAGUACCAGAAAGAATT against Xcl1 the z-score was inactive: -0.0888. For GCCCAUGUGACGAUAACUGTT against Ociad1, the z-score was inactive: 0.892. For GGGAGGAUUCAUGUUGUGUTT against Morc1, the z-score was inactive: 1.19. In the case of CCGAUUUGAUACCCUGGAATT against Tfpi, the z-score is reported as inactive: -0.695. For GGGCGAGCAGUUUGUGUUUTT against Crybb2, the z-score was inactive: 1.58.

Source: PubChem BioAssay AID1508600 (Functional Genomics Laboratory (NCATS/FGL), 2020)
